PubChem BioAssay AID1224828 – NIAID | 2016

- Purpose: 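Knock-downs that increase or decrease LPS-induced p65 nuclear translocation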 (primary screen)
- System: mouse RAW264.7 G9 macrophage reporter cells (GFP-p65, Tnf promoter-mCherry)
- Reagents: siRNA pool against mouse genes, 100 nM
- Timing: 2 days siRNA transfection, then 40 min LPS before fixation
- Conditions: LPS (Salmonella minnesota R595) at 10 ng/ml
- Read-out: 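Microscopy ratio of nuclear to perinuclear-ring GFP-p65 signal, scaled to the plate median; gene score is the average of two replicate robust z-scores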
- Reading the numbers: p65 translocation robust z-score: higher = more nuclear NF-kappaB p65 after LPS than the plate median; nuclear/cytoplasmic p65 ratio: higher = more nuclear NF-kappaB p65
- Active means: 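Active if robust z is above 3.3 (negative regulators) or below -1.56, the Tlr4 control median (positive regulators); activity score 50 or more; control wells not called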
- Meaning of the calls: active = hit (p65 shift raised or lowered); inactive = no clear change
Here is an unselected part of about 17,000 deposited reagents. 762 of all reagents (4.5%) count as active. 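Active calls include both raised and lowered p65 entry, mostly lowered; wells with fewer than 50 cells lack a z-score.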 The raw values are shown without normalisation. Some reagents were tested in more than one well and are listed for each.

no.	Target gene	p65 translocation robust z-score	nuclear/cytoplasmic p65 ratio, rep 1	nuclear/cytoplasmic p65 ratio, rep 2	low cell count flag	Outcome
1	Cyb5rl (cytochrome b5 reductase-like)	-0.52	1.21	1.2	enough cells to score	inactive
2	Vmn1r227 (vomeronasal 1 receptor 227)		1.09	1.02	fewer than 50 cells per well; well left out of scoring	inactive
3	Kctd5 (potassium channel tetramerisation domain containing 5)	1.89	1.85	1.66	enough cells to score	inactive
4	9230112E08Rik (RIKEN cDNA 9230112E08 gene)	0.73	1.53	1.64	enough cells to score	inactive
5	9230112E08Rik (RIKEN cDNA 9230112E08 gene)	-0.25	1.42	1.48	enough cells to score	inactive
6	Rce1 (Ras converting CAAX endopeptidase 1)	-0.93	1.38	1.39	enough cells to score	inactive
7	Gzmf (granzyme F)	-3.02	1.24	1.06	enough cells to score	active
8	Ptk6 (PTK6 protein tyrosine kinase 6)	-1.24	1.49	1.22	enough cells to score	inactive
9	Crip2 (cysteine rich protein 2)	0.71	1.67	1.91	enough cells to score	inactive
10	Arhgef11 (Rho guanine nucleotide exchange factor 11)	-0.59	1.53	1.53	enough cells to score	inactive
11	Rpap2 (RNA polymerase II associated protein 2)	-0.78	1.5	1.39	enough cells to score	inactive
12	Ahctf1 (AT hook containing transcription factor 1)	-1.2	1.29	1.23	enough cells to score	inactive
13	Or10s1 (olfactory receptor family 10 subfamily S member 1)	2.16	1.73	1.42	enough cells to score	inactive
14	Uba5 (ubiquitin-like modifier activating enzyme 5)		1.34	1.15	fewer than 50 cells per well; well left out of scoring	inactive
15	Tie1	-1.61	1.53	1.18	enough cells to score	active
16	Cdk2 (cyclin dependent kinase 2)	-0.83	1.46	1.65	enough cells to score	inactive
17	Tcp11l2 (t-complex 11 (mouse) like 2)	-1.62	1.25	1.15	enough cells to score	active
18	Zfp935 (zinc finger protein 935)		1.31	1.33	fewer than 50 cells per well; well left out of scoring	inactive
19	Per2 (period circadian clock 2)	-0.26	1.41	1.38	enough cells to score	inactive
20	Cox8a (cytochrome c oxidase subunit 8A)	0.14	1.56	1.84	enough cells to score	inactive

Individual results from the entries so far.
Value for Cdk2 (cyclin dependent kinase 2) in “low cell count flag”: enough cells to score
Under “Outcome”, Cox8a (cytochrome c oxidase subunit 8A) reads inactive
Crip2 (cysteine rich protein 2), nuclear/cytoplasmic p65 ratio, rep 2 → 1.91
Under “p65 translocation robust z-score”, Per2 (period circadian clock 2) has -0.26
Value of Or10s1 (olfactory receptor family 10 subfamily S member 1) in “nuclear/cytoplasmic p65 ratio, rep 1”: 1.73

The listing continues:
no.	Target gene	p65 translocation robust z-score	nuclear/cytoplasmic p65 ratio, rep 1	nuclear/cytoplasmic p65 ratio, rep 2	low cell count flag	Outcome
21	Aldh7a1 (aldehyde dehydrogenase family 7, member A1)	-0.19	1.62	1.56	enough cells to score	inactive
22	Zcchc10 (zinc finger, CCHC domain containing 10)	0.6	1.72	1.82	enough cells to score	inactive
23	Or5t15 (olfactory receptor family 5 subfamily T member 15)	-0.67	1.57	1.47	enough cells to score	inactive
24	Gpr65 (G-protein coupled receptor 65)		1.15	1.39	fewer than 50 cells per well; well left out of scoring	inactive
25	Fus (fused in sarcoma)	-0.05	1.35	1.44	enough cells to score	inactive
26	Xlr3a (X-linked lymphocyte-regulated 3A)	-1.25	1.17	1.11	enough cells to score	inactive
27	Msrb3 (methionine sulfoxide reductase B3)	-0.11	1.49	1.6	enough cells to score	inactive
28	Adcy8 (adenylate cyclase 8)	0.33	1.6	1.8	enough cells to score	inactive
29	Pomc (pro-opiomelanocortin-alpha)	-1.15	1.33	1.27	enough cells to score	inactive
30	Cenpe (centromere protein E)	-0.56	1.39	1.31	enough cells to score	inactive
31	Fignl1 (fidgetin-like 1)	-0.44	1.53	1.4	enough cells to score	inactive
32	Snph (syntaphilin)	1.88	1.38	1.44	enough cells to score	inactive
33	Myd88 (myeloid differentiation primary response gene 88)	-2.66	0.985	1.1	enough cells to score	active
34	Mageh1 (MAGE family member H1)	0.36	1.72	1.61	enough cells to score	inactive
35	Zfand2a (zinc finger, AN1-type domain 2A)	1.19	1.48	1.75	enough cells to score	inactive
36	Trim41 (tripartite motif-containing 41)	-0.26	1.4	1.2	enough cells to score	inactive
37	Eri1 (exoribonuclease 1)	1.99	1.68	1.36	enough cells to score	inactive
38	Serpina1d (serine (or cysteine) peptidase inhibitor, clade A, member 1D)	-0.48	1.34	1.63	enough cells to score	inactive
39	Ctxn1 (cortexin 1)		1.19	1.56	fewer than 50 cells per well; well left out of scoring	inactive
40	Spn (sialophorin)	-0.82	1.42	1.45	enough cells to score	inactive
41	Zfp770 (zinc finger protein 770)	1.73	1.71	1.74	enough cells to score	inactive
42	Dnase2a (deoxyribonuclease II alpha)	0.8	1.57	1.49	enough cells to score	inactive
43	Mlxip (MLX interacting protein)	-0.53	1.55	1.52	enough cells to score	inactive
44	Slc45a1		1.52	1.42	fewer than 50 cells per well; well left out of scoring	inactive
45	Crppa (CDP-L-ribitol pyrophosphorylase A)		1.47	1.4	fewer than 50 cells per well; well left out of scoring	inactive
46	Barx1 (BarH-like homeobox 1)	-1.03	1.44	1.48	enough cells to score	inactive
47	Tox4 (TOX high mobility group box family member 4)	2.03	1.62	1.57	enough cells to score	inactive
48	Invs (inversin)	-0.76	1.44	1.33	enough cells to score	inactive
49	Or2ag1 (olfactory receptor family 2 subfamily AG member 1)		1.54	1.29	fewer than 50 cells per well; well left out of scoring	inactive
50	Jade2 (jade family PHD finger 2)	-0.69	1.34	1.17	enough cells to score	inactive
51	Pde6c (phosphodiesterase 6C, cGMP specific, cone, alpha prime)	-1	0.979	1.59	enough cells to score	inactive
52	4921509C19Rik (RIKEN cDNA 4921509C19 gene)		1.22	1.28	fewer than 50 cells per well; well left out of scoring	inactive
53	Ctf2 (cardiotrophin 2)	0.13	1.58	1.82	enough cells to score	inactive
54	Cphx1 (cytoplasmic polyadenylated homeobox 1)	-0.12	1.38	1.55	enough cells to score	inactive
55	Scrt1 (scratch family zinc finger 1)	-0.98	1.26	1.13	enough cells to score	inactive
56	Fut2b (fucosyltransferase 2B)	-1.63	1.19	1.07	enough cells to score	active
57	Tril (TLR4 interactor with leucine-rich repeats)	-0.36	1.35	1.43	enough cells to score	inactive
58	Or1f19 (olfactory receptor family 1 subfamily F member 19)	-0.47	1.49	1.4	enough cells to score	inactive
59	Kcnb2	0.62	1.72	1.69	enough cells to score	inactive
